Results are given in words; binding and its absence hold for the method and conditions named. Binding seen in cells or lysates may run through a third protein. Binding calls can cover weak binding; strength is not graded here. Sequences can lack the tags named with a protein.
Molecular target: T1, FLAG-tagged full-length Pf3D7_0811400 (P. falciparum) (UniProt C0H4U0)
T1 sequence: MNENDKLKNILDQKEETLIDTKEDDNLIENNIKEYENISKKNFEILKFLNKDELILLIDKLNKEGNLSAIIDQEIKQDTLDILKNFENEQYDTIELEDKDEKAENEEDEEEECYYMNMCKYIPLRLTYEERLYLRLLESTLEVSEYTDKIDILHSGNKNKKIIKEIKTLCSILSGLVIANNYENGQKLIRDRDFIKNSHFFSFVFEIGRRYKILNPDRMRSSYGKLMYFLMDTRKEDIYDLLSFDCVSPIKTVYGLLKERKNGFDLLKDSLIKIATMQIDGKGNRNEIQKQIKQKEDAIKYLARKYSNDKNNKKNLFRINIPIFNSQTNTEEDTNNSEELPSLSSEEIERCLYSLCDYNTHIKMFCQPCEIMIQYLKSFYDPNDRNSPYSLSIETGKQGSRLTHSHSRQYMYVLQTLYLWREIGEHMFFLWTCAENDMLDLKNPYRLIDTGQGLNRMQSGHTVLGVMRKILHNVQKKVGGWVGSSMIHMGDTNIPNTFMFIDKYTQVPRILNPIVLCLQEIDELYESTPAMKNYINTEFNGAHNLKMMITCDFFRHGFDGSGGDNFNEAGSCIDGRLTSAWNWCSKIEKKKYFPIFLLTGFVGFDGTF
Assay: co-IP

Question: With MYC-tagged PfRbx1 (P. falciparum) as the substance, how does the binding read?
Answer: binds

Reference: paper doi:10.1101/2024.10.06.616869
